Our source for the binding values is paper PMC7364817.

Sequences of proteins named here, by UniProt entry; tags and fusion partners are left off. A change or cut given only in a name is not applied to a line headed by its entry. Residues count along the entry.
UniProt P60468: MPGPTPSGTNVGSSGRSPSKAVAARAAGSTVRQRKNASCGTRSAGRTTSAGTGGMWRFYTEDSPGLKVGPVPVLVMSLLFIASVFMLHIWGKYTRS
UniProt Q8TEM1, residues 27-1887: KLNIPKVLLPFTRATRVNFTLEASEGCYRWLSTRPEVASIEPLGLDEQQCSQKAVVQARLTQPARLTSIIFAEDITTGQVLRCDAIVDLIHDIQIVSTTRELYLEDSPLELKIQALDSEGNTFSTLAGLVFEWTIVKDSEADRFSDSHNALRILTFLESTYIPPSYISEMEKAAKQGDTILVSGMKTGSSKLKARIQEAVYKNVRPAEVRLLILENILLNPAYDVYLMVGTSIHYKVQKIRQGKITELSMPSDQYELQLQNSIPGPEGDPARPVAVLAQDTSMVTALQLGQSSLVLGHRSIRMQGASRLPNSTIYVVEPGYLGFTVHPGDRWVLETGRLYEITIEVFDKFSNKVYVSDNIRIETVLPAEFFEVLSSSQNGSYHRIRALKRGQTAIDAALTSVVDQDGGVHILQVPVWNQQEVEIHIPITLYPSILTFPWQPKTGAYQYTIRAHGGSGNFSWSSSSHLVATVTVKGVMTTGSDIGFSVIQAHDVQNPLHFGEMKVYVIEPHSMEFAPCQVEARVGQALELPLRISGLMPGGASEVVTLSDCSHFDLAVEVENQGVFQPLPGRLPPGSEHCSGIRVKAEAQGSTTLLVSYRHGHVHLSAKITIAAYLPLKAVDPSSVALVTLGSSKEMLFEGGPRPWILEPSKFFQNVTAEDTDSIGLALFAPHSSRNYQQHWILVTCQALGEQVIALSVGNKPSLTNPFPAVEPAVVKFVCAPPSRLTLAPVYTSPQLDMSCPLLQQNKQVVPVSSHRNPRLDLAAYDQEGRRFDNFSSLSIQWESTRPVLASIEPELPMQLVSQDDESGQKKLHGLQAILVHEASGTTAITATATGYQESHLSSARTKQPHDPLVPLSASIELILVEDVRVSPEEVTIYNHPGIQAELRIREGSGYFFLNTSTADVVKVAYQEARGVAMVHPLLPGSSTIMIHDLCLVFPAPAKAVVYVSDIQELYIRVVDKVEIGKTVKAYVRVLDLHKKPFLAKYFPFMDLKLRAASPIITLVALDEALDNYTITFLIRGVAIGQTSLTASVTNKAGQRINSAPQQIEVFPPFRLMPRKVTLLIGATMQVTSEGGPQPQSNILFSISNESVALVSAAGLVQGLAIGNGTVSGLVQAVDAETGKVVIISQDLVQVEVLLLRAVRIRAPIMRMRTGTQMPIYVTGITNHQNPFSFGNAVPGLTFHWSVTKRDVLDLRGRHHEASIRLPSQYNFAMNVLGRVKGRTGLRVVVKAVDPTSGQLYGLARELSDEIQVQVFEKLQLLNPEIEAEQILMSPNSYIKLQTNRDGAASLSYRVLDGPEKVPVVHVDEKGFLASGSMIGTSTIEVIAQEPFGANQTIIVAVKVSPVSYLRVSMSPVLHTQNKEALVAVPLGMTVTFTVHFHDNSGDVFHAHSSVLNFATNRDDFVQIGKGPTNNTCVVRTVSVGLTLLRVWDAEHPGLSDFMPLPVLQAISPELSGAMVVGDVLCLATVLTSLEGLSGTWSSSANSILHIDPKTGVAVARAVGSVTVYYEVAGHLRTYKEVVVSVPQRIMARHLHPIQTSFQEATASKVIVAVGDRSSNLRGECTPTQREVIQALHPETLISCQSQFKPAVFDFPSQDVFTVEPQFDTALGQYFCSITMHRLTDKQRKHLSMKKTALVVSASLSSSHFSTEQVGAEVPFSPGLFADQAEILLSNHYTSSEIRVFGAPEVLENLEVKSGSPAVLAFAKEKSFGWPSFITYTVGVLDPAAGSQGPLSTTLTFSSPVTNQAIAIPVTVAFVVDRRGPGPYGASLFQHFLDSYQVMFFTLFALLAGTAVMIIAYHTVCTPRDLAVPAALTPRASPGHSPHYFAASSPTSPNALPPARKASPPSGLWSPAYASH
UniProt Q14145: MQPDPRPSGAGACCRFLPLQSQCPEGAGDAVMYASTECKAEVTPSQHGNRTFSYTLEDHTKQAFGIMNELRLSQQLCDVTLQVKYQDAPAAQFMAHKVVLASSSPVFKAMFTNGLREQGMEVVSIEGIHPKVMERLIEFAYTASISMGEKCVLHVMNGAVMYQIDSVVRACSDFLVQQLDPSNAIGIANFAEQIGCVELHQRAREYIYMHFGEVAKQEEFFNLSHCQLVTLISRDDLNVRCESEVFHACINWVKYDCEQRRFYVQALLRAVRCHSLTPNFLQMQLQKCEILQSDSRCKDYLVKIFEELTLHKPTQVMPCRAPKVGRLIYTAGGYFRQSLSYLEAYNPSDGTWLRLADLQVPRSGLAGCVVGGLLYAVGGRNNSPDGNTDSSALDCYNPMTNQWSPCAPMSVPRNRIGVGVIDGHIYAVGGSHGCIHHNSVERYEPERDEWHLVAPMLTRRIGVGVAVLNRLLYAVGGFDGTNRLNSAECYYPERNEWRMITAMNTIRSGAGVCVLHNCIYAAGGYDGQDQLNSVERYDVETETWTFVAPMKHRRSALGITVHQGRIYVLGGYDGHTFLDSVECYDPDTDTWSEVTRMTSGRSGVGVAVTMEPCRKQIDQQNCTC
UniProt P40938: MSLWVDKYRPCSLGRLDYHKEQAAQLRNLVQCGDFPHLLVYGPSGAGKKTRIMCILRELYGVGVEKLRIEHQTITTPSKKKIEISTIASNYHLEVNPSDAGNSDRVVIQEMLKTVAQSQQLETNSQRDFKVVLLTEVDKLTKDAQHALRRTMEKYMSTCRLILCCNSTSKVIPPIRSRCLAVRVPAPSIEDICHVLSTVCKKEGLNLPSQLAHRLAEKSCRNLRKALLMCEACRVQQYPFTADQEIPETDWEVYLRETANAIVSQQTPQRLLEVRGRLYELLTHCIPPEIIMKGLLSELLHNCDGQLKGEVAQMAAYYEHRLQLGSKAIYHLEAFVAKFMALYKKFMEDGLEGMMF
UniProt O14818: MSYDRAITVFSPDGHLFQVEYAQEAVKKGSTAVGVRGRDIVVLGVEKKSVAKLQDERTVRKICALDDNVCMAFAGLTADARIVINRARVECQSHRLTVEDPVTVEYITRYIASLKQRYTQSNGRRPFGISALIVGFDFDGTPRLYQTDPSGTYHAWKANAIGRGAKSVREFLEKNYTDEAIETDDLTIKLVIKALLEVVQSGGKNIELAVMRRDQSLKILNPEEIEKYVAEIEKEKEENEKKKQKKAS
UniProt O60884: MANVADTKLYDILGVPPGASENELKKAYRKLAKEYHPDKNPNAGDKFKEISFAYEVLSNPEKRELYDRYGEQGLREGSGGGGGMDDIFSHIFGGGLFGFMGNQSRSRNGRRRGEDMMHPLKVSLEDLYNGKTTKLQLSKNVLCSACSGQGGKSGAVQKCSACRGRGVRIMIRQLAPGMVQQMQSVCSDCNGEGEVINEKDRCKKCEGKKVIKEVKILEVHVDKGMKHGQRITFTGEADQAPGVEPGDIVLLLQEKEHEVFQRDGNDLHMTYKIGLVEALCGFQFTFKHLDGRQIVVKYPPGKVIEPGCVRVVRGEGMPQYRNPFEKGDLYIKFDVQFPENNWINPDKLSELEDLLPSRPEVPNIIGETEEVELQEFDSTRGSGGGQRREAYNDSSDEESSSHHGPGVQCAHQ
UniProt P63104: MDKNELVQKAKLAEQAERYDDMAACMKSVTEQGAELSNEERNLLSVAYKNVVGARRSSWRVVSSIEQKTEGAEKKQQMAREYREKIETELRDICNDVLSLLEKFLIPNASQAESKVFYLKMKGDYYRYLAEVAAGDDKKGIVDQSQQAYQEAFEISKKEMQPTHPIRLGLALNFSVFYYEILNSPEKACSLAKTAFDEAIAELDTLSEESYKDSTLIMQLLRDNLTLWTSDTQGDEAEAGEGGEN
UniProt P49736: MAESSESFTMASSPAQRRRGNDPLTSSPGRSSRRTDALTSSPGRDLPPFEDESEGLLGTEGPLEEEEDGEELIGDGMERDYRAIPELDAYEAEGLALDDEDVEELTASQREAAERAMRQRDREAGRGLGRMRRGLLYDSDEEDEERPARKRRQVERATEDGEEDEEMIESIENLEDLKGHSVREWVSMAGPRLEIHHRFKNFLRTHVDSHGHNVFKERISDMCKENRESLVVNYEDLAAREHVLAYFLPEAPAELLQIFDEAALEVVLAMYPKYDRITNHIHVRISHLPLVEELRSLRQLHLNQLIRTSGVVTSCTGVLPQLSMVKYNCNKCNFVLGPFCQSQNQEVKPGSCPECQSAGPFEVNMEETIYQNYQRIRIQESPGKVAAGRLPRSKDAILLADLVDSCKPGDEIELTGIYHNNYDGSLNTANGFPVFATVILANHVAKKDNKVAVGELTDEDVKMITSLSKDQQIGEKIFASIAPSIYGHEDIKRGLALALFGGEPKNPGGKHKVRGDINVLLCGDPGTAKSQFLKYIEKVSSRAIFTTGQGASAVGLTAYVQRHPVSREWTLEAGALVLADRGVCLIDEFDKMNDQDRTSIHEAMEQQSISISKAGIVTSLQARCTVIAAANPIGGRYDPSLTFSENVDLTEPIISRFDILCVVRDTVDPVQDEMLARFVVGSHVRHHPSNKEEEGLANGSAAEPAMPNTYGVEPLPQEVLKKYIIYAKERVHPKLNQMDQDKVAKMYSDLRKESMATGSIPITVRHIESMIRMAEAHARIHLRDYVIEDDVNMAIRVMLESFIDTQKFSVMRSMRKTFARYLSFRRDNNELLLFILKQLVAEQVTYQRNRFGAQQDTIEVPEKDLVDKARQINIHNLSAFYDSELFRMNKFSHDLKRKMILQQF
UniProt P52948: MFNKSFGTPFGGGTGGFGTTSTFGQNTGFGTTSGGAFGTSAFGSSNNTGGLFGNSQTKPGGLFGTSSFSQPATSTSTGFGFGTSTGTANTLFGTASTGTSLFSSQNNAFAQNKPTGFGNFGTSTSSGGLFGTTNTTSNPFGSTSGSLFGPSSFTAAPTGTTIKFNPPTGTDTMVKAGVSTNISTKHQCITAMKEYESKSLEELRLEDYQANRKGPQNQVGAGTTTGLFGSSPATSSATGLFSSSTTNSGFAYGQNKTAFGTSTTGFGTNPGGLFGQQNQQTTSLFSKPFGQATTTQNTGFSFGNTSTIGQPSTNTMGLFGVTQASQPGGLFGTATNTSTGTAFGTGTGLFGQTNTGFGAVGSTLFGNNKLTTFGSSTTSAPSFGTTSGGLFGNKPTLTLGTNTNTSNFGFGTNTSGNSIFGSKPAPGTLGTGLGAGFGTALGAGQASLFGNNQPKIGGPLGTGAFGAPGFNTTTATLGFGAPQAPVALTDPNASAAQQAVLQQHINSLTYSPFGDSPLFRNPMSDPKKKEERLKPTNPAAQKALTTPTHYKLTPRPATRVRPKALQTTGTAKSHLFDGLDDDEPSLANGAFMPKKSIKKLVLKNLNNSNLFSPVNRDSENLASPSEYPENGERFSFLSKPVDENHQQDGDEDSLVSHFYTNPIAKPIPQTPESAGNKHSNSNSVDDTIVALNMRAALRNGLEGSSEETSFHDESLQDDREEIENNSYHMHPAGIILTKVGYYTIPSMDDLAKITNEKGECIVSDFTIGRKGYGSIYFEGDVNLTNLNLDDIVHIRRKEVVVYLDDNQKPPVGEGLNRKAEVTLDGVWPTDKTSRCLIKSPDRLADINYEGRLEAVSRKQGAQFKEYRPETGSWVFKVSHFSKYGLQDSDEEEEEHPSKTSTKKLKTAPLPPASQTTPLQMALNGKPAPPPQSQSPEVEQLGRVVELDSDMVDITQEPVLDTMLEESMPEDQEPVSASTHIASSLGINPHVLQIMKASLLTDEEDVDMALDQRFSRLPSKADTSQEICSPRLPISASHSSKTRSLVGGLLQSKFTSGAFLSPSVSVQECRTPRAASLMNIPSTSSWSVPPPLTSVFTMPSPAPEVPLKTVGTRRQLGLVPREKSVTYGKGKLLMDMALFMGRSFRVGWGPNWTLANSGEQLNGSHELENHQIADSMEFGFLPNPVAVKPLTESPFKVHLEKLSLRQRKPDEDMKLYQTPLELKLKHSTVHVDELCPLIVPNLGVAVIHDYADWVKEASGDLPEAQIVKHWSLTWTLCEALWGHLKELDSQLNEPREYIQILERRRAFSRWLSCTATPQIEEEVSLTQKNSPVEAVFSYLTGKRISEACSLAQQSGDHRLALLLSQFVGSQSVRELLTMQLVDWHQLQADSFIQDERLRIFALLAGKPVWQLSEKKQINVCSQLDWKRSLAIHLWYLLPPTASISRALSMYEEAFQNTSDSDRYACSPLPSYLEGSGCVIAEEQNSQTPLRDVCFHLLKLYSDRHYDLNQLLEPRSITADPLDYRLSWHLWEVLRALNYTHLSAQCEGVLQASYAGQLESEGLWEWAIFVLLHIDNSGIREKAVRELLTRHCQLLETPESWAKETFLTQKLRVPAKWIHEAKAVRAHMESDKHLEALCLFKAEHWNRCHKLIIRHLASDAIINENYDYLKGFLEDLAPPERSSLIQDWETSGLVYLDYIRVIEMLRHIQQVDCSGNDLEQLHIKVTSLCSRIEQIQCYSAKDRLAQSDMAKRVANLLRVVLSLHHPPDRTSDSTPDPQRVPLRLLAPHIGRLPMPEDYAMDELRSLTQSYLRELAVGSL

These are yes or no findings as the source states them, for the method shown. In cells and extracts the contact can be indirect. Here binding means that the protein was enriched with, or labelled near, the bait; the list need not be complete. Sequences can lack the tags named with a protein.

For this test, the target named is T1, FLAG-tagged SMCR8 (Smith-Magenis Syndrome Chromosome Region, Candidate 8) (UniProt Q8TEV9).
T1 sequence: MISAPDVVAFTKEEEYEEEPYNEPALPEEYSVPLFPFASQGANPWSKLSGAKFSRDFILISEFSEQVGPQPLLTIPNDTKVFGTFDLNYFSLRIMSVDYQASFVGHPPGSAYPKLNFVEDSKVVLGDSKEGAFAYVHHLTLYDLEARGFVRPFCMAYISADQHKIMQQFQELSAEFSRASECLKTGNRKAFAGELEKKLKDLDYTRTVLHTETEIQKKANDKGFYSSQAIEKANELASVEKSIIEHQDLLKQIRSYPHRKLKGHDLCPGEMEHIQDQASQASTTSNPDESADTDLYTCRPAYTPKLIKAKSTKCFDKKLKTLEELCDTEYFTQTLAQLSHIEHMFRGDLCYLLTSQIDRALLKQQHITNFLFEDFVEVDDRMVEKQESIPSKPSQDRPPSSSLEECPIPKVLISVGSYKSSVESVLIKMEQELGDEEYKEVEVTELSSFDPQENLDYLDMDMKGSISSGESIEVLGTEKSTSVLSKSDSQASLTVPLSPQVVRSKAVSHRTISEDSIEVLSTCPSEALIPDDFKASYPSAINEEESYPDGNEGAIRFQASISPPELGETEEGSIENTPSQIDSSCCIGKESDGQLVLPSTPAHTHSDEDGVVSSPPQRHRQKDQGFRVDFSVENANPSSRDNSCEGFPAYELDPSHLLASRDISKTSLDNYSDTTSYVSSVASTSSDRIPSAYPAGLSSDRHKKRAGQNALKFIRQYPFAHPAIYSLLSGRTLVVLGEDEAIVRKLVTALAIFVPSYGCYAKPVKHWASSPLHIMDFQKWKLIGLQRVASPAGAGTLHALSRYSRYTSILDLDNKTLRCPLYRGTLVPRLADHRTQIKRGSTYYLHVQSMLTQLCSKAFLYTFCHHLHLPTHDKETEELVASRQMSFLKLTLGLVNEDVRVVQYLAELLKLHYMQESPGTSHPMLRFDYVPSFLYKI
Nature of the test: affinity purification with mass spectrometry; FL-SMCR8, C9orf72-FL or empty vector transfected in HEK 293T; α-FLAG agarose IP from whole cell lysates with or without RNase; LC-MS/MS; hits with three or more spectra and not detected in vector only control.
With “proteasome 26S subunit, ATPase 3 (from UniProt P17980 1-439)”, the binding entry is recorded as “binds”.

As to “proteasome subunit alpha 1 (from UniProt P25786 1-263)”, the binding result is “binds”.

In the case of “small ubiquitin-like modifier 3 (from UniProt P55854 1-92)”, the binding entry was “binds”.

Consider “proteasome activator subunit 3 (from UniProt P61289 1-254)”, for which the binding entry is recorded as “binds”.

“Sec61 translocon beta subunit (from UniProt P60468 1-96)”: the binding result is recorded as “binds”.

Turning to “eukaryotic translation initiation factor 3 subunit E (from UniProt P60228 1-445)”, the binding result was “binds”.

For the substance “nucleoporin 210 (from UniProt Q8TEM1 27-1887)”, the binding entry is on record as “binds”.

As for “nucleoporin 153 (from UniProt P49790 1-1475)”, the binding entry is on record as “binds”.

As for “cyclin dependent kinase 5 (from UniProt Q00535 1-292)”, the binding entry is “binds”.

Consider “kelch like ECH associated protein 1 (from UniProt Q14145 1-624)”, for which the binding result is “binds”.

On to “DNA polymerase delta 1, catalytic subunit (from UniProt P28340 1-1107)”, for which the binding result was “binds”.

With “replication factor C subunit 3 (from UniProt P40938 1-356)”, the binding result is reported as “binds”.

On to DCTN1 (from UniProt Q14203 1-1278), for which the binding result was “binds”.

Turning to “heat shock protein family H (Hsp110) member 1 (from UniProt Q92598 1-858)”, the binding result is “binds”.

“proteasome subunit alpha 3 (from UniProt P25788 1-255)”: the binding result was “binds”.

Consider “proteasome subunit alpha 7 (from UniProt O14818 1-248)”, for which the binding result was “binds”.

Turning to “tubulin beta 3 class III (from UniProt Q13509 1-450)”, the binding result is listed as “binds”.

As for ALDH3A2 (from UniProt P51648 1-485), the binding entry is given as “binds”.

As for “heat shock protein family A member 4 (from UniProt P34932 1-840)”, the binding entry is recorded as “binds”.

For the substance “damage specific DNA binding protein 1 (from UniProt Q16531 1-1140)”, the binding result was “binds”.

For the substance “RAD21 cohesin complex component (from UniProt O60216 1-631)”, the binding entry was “binds”.

As to “ubiquitin specific peptidase 9, X-linked (from UniProt Q93008 1-2554)”, the binding entry is recorded as “binds”.

As to “autophagy cargo receptor p62 (encoded by the SQSTM1 gene), endogenous (from UniProt Q13501 1-440)”, the binding entry is on record as “binds”.

For the substance HCFC1 (human (endogenous in HEK 293T)), the binding result is reported as “binds”.

In the case of “tubulin beta 6 class V (from UniProt Q9BUF5 1-446)”, the binding entry is “binds”.

Regarding “proteasome 26S subunit, ATPase 6 (from UniProt P62333 1-389)”, the binding entry is given as “binds”.

Take “ubiquitin protein ligase E3 component n-recognin 5 (from UniProt O95071 1-2799)”: the binding result is given as “binds”.

Take “proteasome subunit alpha 6 (from UniProt P60900 1-246)”: the binding entry was “binds”.

As to “RAN binding protein 2, E3 SUMO ligase (from UniProt P49792 1-3224)”, the binding entry is listed as “binds”.

For “apoptosis inducing factor, mitochondria associated 1 (from UniProt O95831)”, the binding result was “binds”.

In the case of “HECT, UBA and WWE domain containing 1, E3 ubiquitin protein ligase (from UniProt Q7Z6Z7 1-4374)”, the binding entry is “binds”.

With “thioredoxin domain containing 5 (from UniProt Q8NBS9 33-432)”, the binding result was “binds”.

In the case of “proteasome subunit beta 2 (from UniProt P49721 1-201)”, the binding result is “binds”.

Consider “glutamyl-prolyl-tRNA synthetase (from UniProt P07814 1-1512)”, for which the binding entry was “binds”.

In the case of “cell division cycle 7 (from UniProt O00311 1-574)”, the binding entry is “binds”.

Regarding “DnaJ heat shock protein family (Hsp40) member A2 (from UniProt O60884 1-412)”, the binding entry is given as “binds”.

As to “DnaJ heat shock protein family member B6 (from UniProt O75190 1-326)”, the binding entry is listed as “binds”.

For “proteasome 26S subunit, non-ATPase 12 (from UniProt O00232 1-456)”, the binding result was “binds”.

Take NOP56 (from UniProt O00567 1-594): the binding entry was “binds”.

CLTC (from UniProt Q00610 1-1675): the binding result is “binds”.

With “eukaryotic translation initiation factor 3 subunit F (from UniProt O00303 1-357)”, the binding result is “binds”.

On to “DnaJ heat shock protein family (Hsp40) member B11 (from UniProt Q9UBS4 23-358)”, for which the binding result was “binds”.

MTHFD1 (from UniProt P11586 1-935): the binding entry was “binds”.

For the substance WNK1 (from UniProt Q9H4A3 1-2382), the binding result was “binds”.

For the substance “STIP1 homology and U-box containing protein 1 (from UniProt Q9UNE7 1-303)”, the binding result was “binds”.

As for “polo like kinase 1 (from UniProt P53350 1-603)”, the binding entry was “binds”.

With “tyrosine 3-monooxygenase/tryptophan 5-monooxygenase activation protein zeta (from UniProt P63104 1-245)”, the binding entry is “binds”.

As for LMNA (from UniProt P02545 1-646), the binding result is given as “binds”.

As for “eukaryotic translation initiation factor 4A1 (from UniProt P60842 1-406)”, the binding result is “binds”.

“carbamoyl-phosphate synthetase 2, aspartate transcarbamylase, and dihydroorotase (from UniProt P27708 1-2225)”: the binding result was “binds”.

As for “eukaryotic translation initiation factor 4 gamma 1 (from UniProt Q04637 1-1599)”, the binding result is “binds”.

“karyopherin subunit beta 1 (from UniProt Q14974 1-876)”: the binding result is reported as “binds”.

In the case of PDK3 (human (endogenous in HEK 293T)), the binding result is listed as “binds”.

Turning to “DnaJ heat shock protein family member A1 (from UniProt P31689 1-397)”, the binding result is “binds”.

On to “TAR DNA binding protein 43, endogenous (from UniProt Q13148 1-414)”, for which the binding entry was “binds”.

“ubiquitin specific peptidase 7 (from UniProt Q93009 1-1102)”: the binding entry is “binds”.

“structural maintenance of chromosomes 3 (from UniProt Q9UQE7 1-1217)”: the binding result was “binds”.

Consider “proteasome 26S subunit, non-ATPase 3 (from UniProt O43242 1-534)”, for which the binding entry was “binds”.

Regarding “dynein cytoplasmic 1 heavy chain 1 (from UniProt Q14204 1-4646)”, the binding entry is given as “binds”.

With “minichromosome maintenance complex component 2 (from UniProt P49736 1-904)”, the binding entry is “binds”.

Regarding “threonyl-tRNA synthetase 2, mitochondrial (putative) (human (endogenous in HEK 293T))”, the binding entry is “binds”.

In the case of nucleoporin 98 (from UniProt P52948), the binding result is recorded as “binds”.

Take “proteasome 26S subunit, non-ATPase 13 (from UniProt Q9UNM6 1-376)”: the binding entry was “binds”.

For GATAD2B (from UniProt Q8WXI9 1-593), the binding result is on record as “binds”.
